Reference: publication PMC7362484
Results are given in words; binding and its absence hold for the method and conditions named. Binding seen in cells or lysates may run through a third protein. A result given as binding can be weak or reduced; the word gives no strength.

The chains behind the UniProt entries cited, without tags or fusion partners. Where a name states a change or a piece, a line headed by the entry shows the natural chain unless it says otherwise.
UniProt Q9C0F0: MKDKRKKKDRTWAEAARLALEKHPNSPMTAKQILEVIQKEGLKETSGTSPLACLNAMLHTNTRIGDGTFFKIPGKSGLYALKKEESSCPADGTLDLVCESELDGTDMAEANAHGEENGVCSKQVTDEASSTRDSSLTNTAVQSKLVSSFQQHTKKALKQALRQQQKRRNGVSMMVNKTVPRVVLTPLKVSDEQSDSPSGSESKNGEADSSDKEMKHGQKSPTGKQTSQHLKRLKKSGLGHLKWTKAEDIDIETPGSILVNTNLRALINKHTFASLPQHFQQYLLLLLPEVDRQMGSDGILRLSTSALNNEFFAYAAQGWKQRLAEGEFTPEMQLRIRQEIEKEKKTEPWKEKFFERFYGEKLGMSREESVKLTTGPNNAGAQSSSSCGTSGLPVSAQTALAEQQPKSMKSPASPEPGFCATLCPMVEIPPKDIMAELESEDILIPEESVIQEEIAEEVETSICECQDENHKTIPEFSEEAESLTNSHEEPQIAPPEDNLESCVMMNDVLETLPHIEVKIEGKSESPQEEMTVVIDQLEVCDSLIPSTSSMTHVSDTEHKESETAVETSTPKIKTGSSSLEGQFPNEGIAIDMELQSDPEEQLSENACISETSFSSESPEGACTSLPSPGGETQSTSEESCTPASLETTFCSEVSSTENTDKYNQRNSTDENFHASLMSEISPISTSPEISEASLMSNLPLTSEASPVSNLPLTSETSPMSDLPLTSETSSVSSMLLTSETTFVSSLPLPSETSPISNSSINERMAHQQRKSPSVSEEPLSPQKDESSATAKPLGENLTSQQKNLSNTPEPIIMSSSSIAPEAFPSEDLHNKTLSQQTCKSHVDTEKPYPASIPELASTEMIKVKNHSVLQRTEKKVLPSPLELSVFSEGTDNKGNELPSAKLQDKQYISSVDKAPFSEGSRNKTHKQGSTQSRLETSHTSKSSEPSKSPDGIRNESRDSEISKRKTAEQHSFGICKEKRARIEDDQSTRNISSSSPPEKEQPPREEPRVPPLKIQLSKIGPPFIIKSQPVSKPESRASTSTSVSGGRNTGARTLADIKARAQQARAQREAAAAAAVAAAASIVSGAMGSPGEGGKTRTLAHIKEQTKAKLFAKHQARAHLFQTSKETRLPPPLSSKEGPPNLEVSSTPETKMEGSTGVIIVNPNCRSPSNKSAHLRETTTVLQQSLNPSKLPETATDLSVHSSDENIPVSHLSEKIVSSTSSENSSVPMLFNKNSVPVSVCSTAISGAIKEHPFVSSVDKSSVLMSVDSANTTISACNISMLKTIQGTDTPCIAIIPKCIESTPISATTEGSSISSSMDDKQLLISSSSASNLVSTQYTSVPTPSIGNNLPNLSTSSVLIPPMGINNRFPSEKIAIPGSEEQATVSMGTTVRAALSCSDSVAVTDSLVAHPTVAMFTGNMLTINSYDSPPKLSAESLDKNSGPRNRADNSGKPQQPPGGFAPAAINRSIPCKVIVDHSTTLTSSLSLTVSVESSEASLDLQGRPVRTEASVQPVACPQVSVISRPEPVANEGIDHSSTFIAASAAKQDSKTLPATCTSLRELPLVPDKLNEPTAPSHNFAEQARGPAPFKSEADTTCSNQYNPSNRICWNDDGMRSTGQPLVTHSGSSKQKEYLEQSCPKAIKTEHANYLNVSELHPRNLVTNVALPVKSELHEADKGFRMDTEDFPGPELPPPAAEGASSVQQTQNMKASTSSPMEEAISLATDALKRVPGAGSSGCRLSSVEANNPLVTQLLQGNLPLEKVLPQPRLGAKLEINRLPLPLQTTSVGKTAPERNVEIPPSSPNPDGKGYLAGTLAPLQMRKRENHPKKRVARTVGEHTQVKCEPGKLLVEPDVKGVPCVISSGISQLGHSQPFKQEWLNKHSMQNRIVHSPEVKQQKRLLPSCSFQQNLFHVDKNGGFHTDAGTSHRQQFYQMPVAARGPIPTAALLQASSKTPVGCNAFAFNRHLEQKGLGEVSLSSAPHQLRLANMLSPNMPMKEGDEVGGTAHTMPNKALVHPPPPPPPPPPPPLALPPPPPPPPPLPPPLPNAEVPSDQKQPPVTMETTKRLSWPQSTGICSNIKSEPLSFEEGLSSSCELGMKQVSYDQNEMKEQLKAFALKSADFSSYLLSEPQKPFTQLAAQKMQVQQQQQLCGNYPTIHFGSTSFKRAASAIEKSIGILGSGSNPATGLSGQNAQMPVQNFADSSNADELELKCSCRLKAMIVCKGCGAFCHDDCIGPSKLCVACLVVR
UniProt Q92560: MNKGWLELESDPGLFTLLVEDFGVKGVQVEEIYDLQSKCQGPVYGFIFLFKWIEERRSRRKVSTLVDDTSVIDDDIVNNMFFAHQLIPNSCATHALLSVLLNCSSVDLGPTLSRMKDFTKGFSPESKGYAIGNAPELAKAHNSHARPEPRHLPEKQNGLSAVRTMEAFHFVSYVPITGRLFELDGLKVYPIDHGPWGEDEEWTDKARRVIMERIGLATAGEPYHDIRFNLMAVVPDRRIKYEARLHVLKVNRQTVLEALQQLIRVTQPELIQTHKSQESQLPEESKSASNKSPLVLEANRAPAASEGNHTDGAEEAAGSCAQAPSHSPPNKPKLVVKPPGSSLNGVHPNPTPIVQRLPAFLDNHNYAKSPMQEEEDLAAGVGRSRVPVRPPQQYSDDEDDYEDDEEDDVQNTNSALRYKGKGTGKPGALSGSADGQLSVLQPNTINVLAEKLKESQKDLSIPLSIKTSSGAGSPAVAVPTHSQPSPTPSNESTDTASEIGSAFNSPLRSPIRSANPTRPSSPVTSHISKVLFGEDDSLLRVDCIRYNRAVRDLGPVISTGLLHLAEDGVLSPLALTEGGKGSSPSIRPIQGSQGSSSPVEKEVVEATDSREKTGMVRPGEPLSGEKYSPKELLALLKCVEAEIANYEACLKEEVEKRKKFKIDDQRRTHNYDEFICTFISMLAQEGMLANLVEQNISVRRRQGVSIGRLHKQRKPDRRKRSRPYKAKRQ

Biological target: GFP-ASXL3-ΔBBM (human) (UniProt Q9C0F0)
Assay: co-IP; HEK293T cells 24 h after transfection with GFP, GFP-ASXL1-3, GFP-ASXL3-FL or GFP-ASXL3-ΔBBM; IP from whole cell lysates with antibodies against the GFP epitope, immunoblot of endogenous proteins; Triton lysis buffer (50 mM Tris pH 8.0, 150 mM NaCl, 0.5% Triton X100, benzonase)

- binding: binds
Substance: BRCA1-associated protein 1 (BAP1), endogenous in HEK293T cells (from UniProt Q92560 1-729) (enzyme)
